Laboratory results reported in patent US20040219584.

Assays:
[1] = test system: T1, BpmI M1 methylase (Bacillus pumilus); experiment: activity in cells; conditions: protein in cells, only the site is given
T1 sequence (limits assumed): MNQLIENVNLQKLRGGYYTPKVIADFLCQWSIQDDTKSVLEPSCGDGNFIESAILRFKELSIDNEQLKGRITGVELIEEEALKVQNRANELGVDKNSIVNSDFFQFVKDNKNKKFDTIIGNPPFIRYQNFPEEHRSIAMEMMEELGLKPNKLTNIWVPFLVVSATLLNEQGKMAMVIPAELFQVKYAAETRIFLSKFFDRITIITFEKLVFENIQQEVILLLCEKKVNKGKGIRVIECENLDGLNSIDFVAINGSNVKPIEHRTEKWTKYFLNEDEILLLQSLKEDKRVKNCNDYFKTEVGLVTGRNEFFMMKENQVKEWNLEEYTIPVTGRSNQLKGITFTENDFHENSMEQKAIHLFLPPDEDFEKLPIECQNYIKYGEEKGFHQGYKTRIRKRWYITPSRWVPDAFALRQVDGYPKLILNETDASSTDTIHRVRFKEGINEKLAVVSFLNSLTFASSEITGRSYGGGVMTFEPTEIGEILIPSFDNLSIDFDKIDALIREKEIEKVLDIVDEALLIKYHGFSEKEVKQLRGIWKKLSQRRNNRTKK

[2] = test system: T2, BpmI-delta1 (methylase and specificity domains deleted) (Bacillus pumilus); experiment: enzyme reaction in vitro; conditions: lambda DNA; only non-specific nuclease seen; protein in a lysate after overexpression
T2 sequence: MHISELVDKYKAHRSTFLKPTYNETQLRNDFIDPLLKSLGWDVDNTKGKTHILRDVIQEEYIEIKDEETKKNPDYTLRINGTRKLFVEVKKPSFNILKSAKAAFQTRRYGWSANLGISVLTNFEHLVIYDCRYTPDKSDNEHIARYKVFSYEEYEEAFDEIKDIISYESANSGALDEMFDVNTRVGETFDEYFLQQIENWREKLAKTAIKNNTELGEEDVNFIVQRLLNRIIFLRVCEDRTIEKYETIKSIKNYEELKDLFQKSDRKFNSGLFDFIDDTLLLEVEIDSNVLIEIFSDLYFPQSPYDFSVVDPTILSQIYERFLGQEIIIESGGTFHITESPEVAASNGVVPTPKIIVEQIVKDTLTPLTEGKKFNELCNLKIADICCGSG

[3] = test system: T3, BpmI-delta3 (TRD deletion, HindIII fragment, C-terminal 193 aa deleted) (Bacillus pumilus); experiment: enzyme reaction in vitro; conditions: no BpmI activity; non-specific nuclease activity displayed; protein in a lysate after overexpression
T3 sequence: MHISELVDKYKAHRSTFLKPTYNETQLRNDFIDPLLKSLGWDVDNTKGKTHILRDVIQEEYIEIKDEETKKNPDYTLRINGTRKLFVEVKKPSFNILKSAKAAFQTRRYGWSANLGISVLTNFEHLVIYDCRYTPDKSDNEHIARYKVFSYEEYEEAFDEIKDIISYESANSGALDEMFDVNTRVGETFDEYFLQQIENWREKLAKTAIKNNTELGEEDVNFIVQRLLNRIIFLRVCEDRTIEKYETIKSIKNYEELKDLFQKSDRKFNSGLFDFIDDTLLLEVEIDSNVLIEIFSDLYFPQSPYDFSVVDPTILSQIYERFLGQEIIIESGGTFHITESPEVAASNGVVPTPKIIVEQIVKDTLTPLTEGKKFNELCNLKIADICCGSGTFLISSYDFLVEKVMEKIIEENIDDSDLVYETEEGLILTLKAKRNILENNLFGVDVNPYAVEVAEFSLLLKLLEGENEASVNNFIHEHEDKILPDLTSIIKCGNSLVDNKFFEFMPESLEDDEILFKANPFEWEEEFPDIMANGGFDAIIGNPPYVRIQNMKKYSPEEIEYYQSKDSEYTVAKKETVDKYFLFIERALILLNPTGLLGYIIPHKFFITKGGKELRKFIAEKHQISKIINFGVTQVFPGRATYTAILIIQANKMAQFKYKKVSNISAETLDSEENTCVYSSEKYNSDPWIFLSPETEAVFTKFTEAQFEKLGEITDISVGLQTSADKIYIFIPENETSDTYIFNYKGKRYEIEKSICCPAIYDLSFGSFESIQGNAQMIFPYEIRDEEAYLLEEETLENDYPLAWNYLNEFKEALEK

[4] = test system: T4, BpmI endonuclease-methylase (BpmIRM) (Bacillus pumilus); experiment: enzyme reaction in vitro; conditions: lambda DNA substrate; 24,000 units per mg specific activity; purified recombinant protein
T4 sequence (limits assumed): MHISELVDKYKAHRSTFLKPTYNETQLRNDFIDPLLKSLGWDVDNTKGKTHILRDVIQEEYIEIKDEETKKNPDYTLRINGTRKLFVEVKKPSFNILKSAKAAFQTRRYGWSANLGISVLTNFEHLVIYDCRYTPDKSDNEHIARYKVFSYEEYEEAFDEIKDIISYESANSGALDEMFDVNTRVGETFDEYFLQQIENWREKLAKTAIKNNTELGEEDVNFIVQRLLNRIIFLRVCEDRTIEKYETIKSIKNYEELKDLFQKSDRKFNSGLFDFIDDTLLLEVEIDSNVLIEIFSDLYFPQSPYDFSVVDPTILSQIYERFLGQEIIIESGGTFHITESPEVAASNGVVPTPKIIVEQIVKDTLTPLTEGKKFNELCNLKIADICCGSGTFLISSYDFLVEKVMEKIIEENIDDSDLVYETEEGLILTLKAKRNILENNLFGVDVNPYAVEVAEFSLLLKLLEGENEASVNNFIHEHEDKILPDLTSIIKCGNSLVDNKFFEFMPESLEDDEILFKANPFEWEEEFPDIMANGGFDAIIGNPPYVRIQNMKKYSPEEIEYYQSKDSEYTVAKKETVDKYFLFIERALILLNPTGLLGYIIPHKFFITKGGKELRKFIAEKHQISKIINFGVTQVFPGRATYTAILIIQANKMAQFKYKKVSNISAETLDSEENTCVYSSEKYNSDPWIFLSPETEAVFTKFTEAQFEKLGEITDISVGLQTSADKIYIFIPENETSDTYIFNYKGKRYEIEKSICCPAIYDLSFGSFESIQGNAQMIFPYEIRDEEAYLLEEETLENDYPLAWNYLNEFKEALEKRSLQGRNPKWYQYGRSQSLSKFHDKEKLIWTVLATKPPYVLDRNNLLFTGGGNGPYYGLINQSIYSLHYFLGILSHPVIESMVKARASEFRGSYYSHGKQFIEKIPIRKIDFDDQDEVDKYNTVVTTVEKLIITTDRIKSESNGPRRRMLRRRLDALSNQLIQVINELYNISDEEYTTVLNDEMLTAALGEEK

[5] = test system: T5, BpmI-delta2 (EcoRI fragment deletion, C-terminal 507 aa deleted) (Bacillus pumilus); experiment: enzyme reaction in vitro; conditions: no BpmI endonuclease activity in induced extract; protein in a lysate after overexpression
T5 sequence: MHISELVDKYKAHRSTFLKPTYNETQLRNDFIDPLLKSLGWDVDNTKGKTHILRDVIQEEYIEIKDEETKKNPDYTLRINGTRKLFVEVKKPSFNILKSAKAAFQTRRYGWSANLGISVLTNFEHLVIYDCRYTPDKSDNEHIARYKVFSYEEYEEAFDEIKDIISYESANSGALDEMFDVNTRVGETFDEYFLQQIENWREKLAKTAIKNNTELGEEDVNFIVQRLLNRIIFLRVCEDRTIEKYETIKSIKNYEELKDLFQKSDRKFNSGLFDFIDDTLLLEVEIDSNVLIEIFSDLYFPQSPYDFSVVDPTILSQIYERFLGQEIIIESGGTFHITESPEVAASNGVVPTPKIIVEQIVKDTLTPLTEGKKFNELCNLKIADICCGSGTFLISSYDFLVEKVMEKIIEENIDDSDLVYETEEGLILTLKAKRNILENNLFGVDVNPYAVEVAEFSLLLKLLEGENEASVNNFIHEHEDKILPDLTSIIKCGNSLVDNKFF

[6] = test system: T6, BpmI E88A (Bacillus pumilus); experiment: activity in cells; conditions: methylase proficient; endonuclease deficient; protein in a lysate after overexpression; only the site is given
T6 sequence (limits assumed): T4 sequence (limits assumed) with E88A

[7] = test system: T7, BpmI D74A (clone #4) D74A,E1007G (Bacillus pumilus); experiment: activity in cells; conditions: methylation proficient (partial plasmid resistance to BpmI); endonuclease activity abolished; protein in a lysate after overexpression; only the site is given
T7 sequence (limits assumed): T4 sequence (limits assumed) with D74A, E1007G

Sequence | activity on this sequence ([1]; modifies XhoI site, proposed recognition CTNNAG) | activity on this sequence [2] | activity on this sequence [3] | activity on this sequence [4] | activity on this sequence [5] | activity on this sequence ([1]; N6-adenine methylation in E. coli gives full resistance of plasmid to BpmI) | activity on this sequence [6] | activity on this sequence [7]
CTCGAG (double strand) [XhoI site] | active |  |  |  |  |  |  | 
CTGGAG (double strand) [BpmI recognition site] |  | not active | not active | active | not active | active | active | active

Where a chain is given by its changes, count along the chain named. Protein sequences can lack the tags named with them. For some assays here: For at least one entry, the source does not settle the construct or the ends of the probe. For some assays here: No signal at the amounts used counts as a negative.
